# Over roughly 33,000 sequences, “E-score (-0.5 to 0.5)” has its median near -0.0059; the highest 2% begin near 0.26. The list shows a part of the results.
# Molecular target: T1, Cin5 (UniProt P40917)
# T1 sequence: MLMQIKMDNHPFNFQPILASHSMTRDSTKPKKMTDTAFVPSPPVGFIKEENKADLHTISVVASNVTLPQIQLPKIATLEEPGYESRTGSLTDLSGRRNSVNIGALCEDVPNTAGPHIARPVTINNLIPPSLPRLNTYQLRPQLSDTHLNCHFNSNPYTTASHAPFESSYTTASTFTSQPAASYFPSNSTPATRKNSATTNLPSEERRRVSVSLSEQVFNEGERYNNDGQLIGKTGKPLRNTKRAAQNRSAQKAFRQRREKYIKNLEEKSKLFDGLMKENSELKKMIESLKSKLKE
# Experiment: PBM E-score (8-mer binding enrichment) (E-score (-0.5 to 0.5)); higher = stronger / more preferred TF binding
# Settings: protein concentration: 100 nM; construct: GST-full length
# Method: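 Universal 'all 10-mer' protein binding microarrays (Agilent AMADID 015681) probed with GST-tagged S. cerevisiae TFs (full-length or DBD) made by in vitro transcription/translation (PURExpress), about 100-200 nM. Bound TF was detected with fluorescent anti-GST. Each ungapped 8-mer (which stands for itself and its reverse complement) is scored by the PBM enrichment score (E-score), a modified Wilcoxon-Mann-Whitney statistic from -0.5 to +0.5, computed with the Universal PBM Analysis Suite. Scale: above 0.35 generally sequence-specific binding.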
row,Sequence,PBM E-score
1,TTGCGCAA,0.119
2,TAGGCGGA,0.125
3,AGCAGTGC,-0.177
4,CGGTGGGC,-0.176
5,CAACCTTG,-0.0155
6,AATTTACT,0.207
7,ACATCGAC,-0.0518
8,TAGGGTCA,0.00684
9,AACTTCGA,0.0793
10,CTCAGATA,0.166
11,AGAACGTG,0.0822
12,AATAACAT,0.204
13,CAGGCGCA,-0.135
14,CTTATTGC,0.0948
15,AAGTATGT,0.0996
16,GATTAGCC,0.0514
17,CAATGCCG,0.0476
18,TATTCTCA,0.0889
19,AAATACGG,0.0126
20,CTTCGACC,-0.112
21,AATTTGCC,0.022
22,ATACCAAT,0.114
23,ATAAGAAC,0.31
24,CACATGAA,-0.0322
25,TCTTCGAA,0.0305

row,Sequence,PBM E-score
1,CTAAGAAC,0.179
2,ATCAGCGG,0.141
3,AACTTATA,0.18
4,ACGAGTAG,0.0382
5,CAGCACGG,-0.114
6,CCCTAGTC,-0.201
7,AGGCTCTC,-0.33
8,CCACCGTA,-0.049
9,CTGACGCA,-0.102
10,GAAGGCTC,-0.269
11,CCGTGACC,-0.187
12,CTGTGCAA,-0.0319
13,AACGGTGT,0.0106
14,GCAGTGAA,0.191
15,CAGTACTC,-0.147
16,CACACATA,-0.0176
17,CCTGAGCG,-0.106
18,TACGTCAA,0.158
19,AACCCAGA,-0.0895
20,ATTCCTTA,-0.00725
21,ACCATTAA,0.203
22,AACTAATG,0.219
23,CATTCATA,0.256
24,ACCCTAAG,-0.0261
25,ATGTGTTA,0.132

row,Sequence,PBM E-score
1,CTCCCCAG,-0.0489
2,TAGGTGAA,0.136
3,TCTCTTCA,-0.00771
4,AAAGCCTA,-0.102
5,AGTCTCGC,-0.00731
6,CTAGGGCA,-0.279
7,AACGGCAA,0.0737
8,CGCGTAAA,0.165
9,GCGACCAA,0.194
10,GAATCCTA,0.0175
11,ATGCATCC,0.0022
12,ATGCATAA,0.193
13,CCTGCACA,-0.17
14,CCCGGTAC,-0.134
15,CTTGGTGC,-0.0925
16,ACCTTGGC,-0.185
17,CAAACATG,0.0123
18,CTTGGTTC,0.117
19,AGTTCGTA,0.0677
20,TGCGTCCA,-0.219
21,ACGTCGTC,-0.0503
22,CACAATAC,0.0698
23,AGCCAAAA,0.0959
24,CTTCCGCA,-0.142
25,CGAGTGGC,-0.182

row,Sequence,PBM E-score
1,ACATATCA,0.242
2,CTGGAAAG,-0.0736
3,CTATGGAA,-0.0826
4,GTAGGAAC,-0.04
5,GAATACCA,0.207
6,AAAGGGGC,-0.202
7,AAGCCGGG,-0.0945
8,TCCCTACA,-0.0396
9,CGTTGTGA,-0.0317
10,CCTCTCAC,-0.147
11,GACTATGA,0.0503
12,CGGCATAA,0.105
13,CACAGAAA,0.0359
14,CCCAAGTC,-0.172
15,CTGCCTCC,-0.0965
16,CTCAGGGC,-0.0919
17,GAAACGCA,0.0412
18,TTAACCAA,0.148
19,GATGAACA,0.0889
20,CTTGTTTC,0.0494
21,ATCTTCAT,0.0738
22,ACCCTCTA,-0.131
23,CATCTTTA,-0.0322
24,AAAATTAT,0.251
25,ACATGGAT,0.092

row,Sequence,PBM E-score
1,AACTGCGT,-0.121
2,ATAGTCCC,-0.103
3,ATCCGGAA,0.227
4,AACGACAC,0.17
5,CTAGCCCC,-0.109
6,ATCAGAGC,0.0896
7,ATACGTTA,0.0594
8,AACGATAG,0.0137
9,GCACTAGA,-0.0877
10,CCTCGTGC,-0.194
11,CCTCGGAA,0.0479
12,GCTTAGCA,0.0739
13,ACTCATAG,0.0385
14,CAAGCGAC,-0.0289
15,CTCAATAA,-0.15
16,AGTCCAAT,0.0719
17,TCAACACA,0.189
18,TACCGTAA,0.177
19,GCGCGGCA,-0.0451
20,GCTATCGA,-0.0296
21,AGGGCACG,-0.206
22,AAAGGGTC,-0.142
23,GTAGTCCA,-0.224
24,CTCCTCAC,-0.258
25,ACCCACAC,0.0935

row,Sequence,PBM E-score
1,ATCCCAAG,-0.0105
2,GGGCGCTA,-0.164
3,ATCTTATC,0.158
4,CGTCCAAG,-0.148
5,TGTCTAAA,-0.0239
6,AAGTACAG,0.0416
7,CCTGGGTC,-0.256
8,AGTTGATG,0.0486
9,ATCTGAAG,-0.229
10,AATCGTTC,0.0881
11,AAATTGCT,0.14
12,CGCAGCAA,-0.101
13,GACGCAGA,-0.0192
14,GAGTTAAA,0.0178
15,GGAAGGAC,-0.163
16,CATAGATG,-0.0944
17,GGAGAGCA,-0.232
18,GAGGGCGC,-0.164
19,CGAGCGGA,0.00773
20,CAGTAATA,0.254
21,CAATGCAC,-0.0596
22,GGGACTAC,0.0211
23,CTTTTCAC,0.0318
24,CTGATTAA,0.108
25,CTTGGTAC,0.115

row,Sequence,PBM E-score
1,AATATGCC,-0.075
2,AGAGGCTC,-0.266
3,CATTAATG,0.196
4,CCACAGTA,0.0368
5,ACGGGCAG,0.00666
6,ATTTGTTA,0.179
7,GAGATTAA,0.14
8,AGACTATG,-0.0386
9,ATAACCGG,-0.145
10,ATGAGTTC,-0.0157
11,GTATTATA,0.267
12,AATATAGT,0.315
13,ATATGAAA,0.259
14,ATAATTGG,0.126
15,TATCAGAA,0.0533
16,TCCGACCA,-0.0775
17,CTGCAGTC,-0.165
18,AGAGTAGC,-0.186
19,AAATTACC,0.123
20,GAGAAAAC,0.0234
21,AAAAAAAT,0.236
22,TGGTAACA,-0.0163

# 50 neighbouring records from above:
row,Sequence,PBM E-score
21,AGGGCACG,-0.206
22,AAAGGGTC,-0.142
23,GTAGTCCA,-0.224
24,CTCCTCAC,-0.258
25,ACCCACAC,0.0935
1,ATCCCAAG,-0.0105
2,GGGCGCTA,-0.164
3,ATCTTATC,0.158
4,CGTCCAAG,-0.148
5,TGTCTAAA,-0.0239
6,AAGTACAG,0.0416
7,CCTGGGTC,-0.256
8,AGTTGATG,0.0486
9,ATCTGAAG,-0.229
10,AATCGTTC,0.0881
11,AAATTGCT,0.14
12,CGCAGCAA,-0.101
13,GACGCAGA,-0.0192
14,GAGTTAAA,0.0178
15,GGAAGGAC,-0.163
16,CATAGATG,-0.0944
17,GGAGAGCA,-0.232
18,GAGGGCGC,-0.164
19,CGAGCGGA,0.00773
20,CAGTAATA,0.254
21,CAATGCAC,-0.0596
22,GGGACTAC,0.0211
23,CTTTTCAC,0.0318
24,CTGATTAA,0.108
25,CTTGGTAC,0.115
1,AATATGCC,-0.075
2,AGAGGCTC,-0.266
3,CATTAATG,0.196
4,CCACAGTA,0.0368
5,ACGGGCAG,0.00666
6,ATTTGTTA,0.179
7,GAGATTAA,0.14
8,AGACTATG,-0.0386
9,ATAACCGG,-0.145
10,ATGAGTTC,-0.0157
11,GTATTATA,0.267
12,AATATAGT,0.315
13,ATATGAAA,0.259
14,ATAATTGG,0.126
15,TATCAGAA,0.0533
16,TCCGACCA,-0.0775
17,CTGCAGTC,-0.165
18,AGAGTAGC,-0.186
19,AAATTACC,0.123
20,GAGAAAAC,0.0234
